Test results: the supplement of paper PMC8728848
This is one part of the list.

Experiments:
Experiment in all cases: glycan array binding signal (z-score within array); higher = stronger binding
Details in all cases: glycan notation: IUPAC condensed, linker removed
[1] = molecular target: Neu5Ac(a2-3)Gal(b1-3)GlcNAc(b1-2)Man(a1-3)[GlcNAc(b1-4)][Neu5Ac(a2-3)Gal(b1-3)GlcNAc(b1-2)Man(a1-6)]Man(b1-4)GlcNAc(b1-4)GlcNAc
In short: (§1)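 Glycan array binding is given as a within-array Z-score, which can be read as non-binding when negative. The arrays, 3228 of them, came from the Consortium for Functional Glycomics database and were retained only where the protein sequence was available. Z-scores were averaged across arrays of the same protein sequence at different concentrations or buffers and across linkers.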

[2] = molecular target: Neu5Ac(a2-3)Gal(b1-3)GlcNAc(b1-2)Man(a1-3)[Neu5Ac(a2-3)Gal(b1-3)GlcNAc(b1-2)Man(a1-6)]Man(b1-4)GlcNAc(b1-4)GlcNAc
In short: as §1

[3] = molecular target: Neu5Ac(a2-3)Gal(b1-3)GlcNAc(b1-3)Gal(b1-3)GlcNAc
In short: as §1

[4] = molecular target: Neu5Ac(a2-3)Gal(b1-3)GlcNAc(b1-3)Gal(b1-4)GlcNAc
In short: as §1

[5] = molecular target: Neu5Ac(a2-3)Gal(b1-3)GlcNAc(b1-3)GalNAc
In short: as §1

[6] = molecular target: Neu5Ac(a2-3)Gal(b1-3)GlcNAc(b1-4)Gal(b1-4)Glc
In short: as §1

[7] = molecular target: Neu5Ac(a2-3)Gal(b1-3)GlcNAc(b1-6)GalNAc
In short: as §1

[8] = molecular target: Neu5Ac(a2-3)Gal(b1-3)GlcNAc6S
In short: as §1

[9] = molecular target: Neu5Ac(a2-3)Gal(b1-3)[Fuc(a1-4)]GlcNAc
In short: as §1

[10] = molecular target: Neu5Ac(a2-3)Gal(b1-3)[Fuc(a1-4)]GlcNAc(b1-3)Gal(b1-3)[Fuc(a1-4)]GlcNAc
In short: as §1

[11] = molecular target: Neu5Ac(a2-3)Gal(b1-3)[Fuc(a1-4)]GlcNAc(b1-3)Gal(b1-4)[Fuc(a1-3)]GlcNAc
In short: as §1

[12] = molecular target: Neu5Ac(a2-3)Gal(b1-3)[GlcNAc(b1-6)]GalNAc
In short: as §1

[13] = molecular target: Neu5Ac(a2-3)Gal(b1-3)[Neu5Ac(a2-6)]GalNAc
In short: as §1

[14] = molecular target: Neu5Ac(a2-3)Gal(b1-3)[Neu5Ac(a2-6)]GlcNAc(b1-3)[Fuc(a1-3)[Gal(b1-4)]GlcNAc(b1-6)]Gal(b1-4)Glc
In short: as §1

[15] = molecular target: Neu5Ac(a2-3)Gal(b1-3)]Neu5Ac(a2-3)Gal(b1-4)]GlcNAc
In short: as §1

[16] = molecular target: Neu5Ac(a2-3)Gal(b1-4)Glc
In short: as §1

[17] = molecular target: Neu5Ac(a2-3)Gal(b1-4)GlcNAc
In short: as §1

[18] = molecular target: Neu5Ac(a2-3)Gal(b1-4)GlcNAc(b1-2)Man
In short: as §1

[19] = molecular target: Neu5Ac(a2-3)Gal(b1-4)GlcNAc(b1-2)Man(a1-3)[GlcNAc(b1-4)][Neu5Ac(a2-3)Gal(b1-4)GlcNAc(b1-2)Man(a1-6)]Man(b1-4)GlcNAc(b1-4)GlcNAc
In short: as §1

[20] = molecular target: Neu5Ac(a2-3)Gal(b1-4)GlcNAc(b1-2)Man(a1-3)[Neu5Ac(a2-3)Gal(b1-4)GlcNAc(b1-2)Man(a1-6)]Man(b1-4)GlcNAc(b1-4)GlcNAc
In short: as §1

[21] = molecular target: Neu5Ac(a2-3)Gal(b1-4)GlcNAc(b1-2)Man(a1-3)[Neu5Ac(a2-3)Gal(b1-4)GlcNAc(b1-2)Man(a1-6)]Man(b1-4)GlcNAc(b1-4)[Fuc(a1-6)]GlcNAc
In short: as §1

[22] = molecular target: Neu5Ac(a2-3)Gal(b1-4)GlcNAc(b1-2)Man(a1-3)[Neu5Ac(a2-6)Gal(b1-4)GlcNAc(b1-2)Man(a1-6)]Man(b1-4)GlcNAc(b1-4)GlcNAc
In short: as §1

[23] = molecular target: Neu5Ac(a2-3)Gal(b1-4)GlcNAc(b1-2)[Neu5Ac(a2-3)Gal(b1-4)GlcNAc(b1-4)]Man(a1-3)[GlcNAc(b1-4)][Neu5Ac(a2-3)Gal(b1-4)GlcNAc(b1-2)[Neu5Ac(a2-3)Gal(b1-4)GlcNAc(b1-6)]Man(a1-6)]Man(b1-4)GlcNAc(b1-4)GlcNAc
In short: as §1

[24] = molecular target: Neu5Ac(a2-3)Gal(b1-4)GlcNAc(b1-2)[Neu5Ac(a2-3)Gal(b1-4)GlcNAc(b1-4)]Man(a1-3)[GlcNAc(b1-4)][Neu5Ac(a2-3)Gal(b1-4)GlcNAc(b1-4)Man(a1-6)]Man(b1-4)GlcNAc(b1-4)GlcNAc
In short: as §1

[25] = molecular target: Neu5Ac(a2-3)Gal(b1-4)GlcNAc(b1-2)[Neu5Ac(a2-3)Gal(b1-4)GlcNAc(b1-6)]Man(a1-6)[Neu5Ac(a2-3)Gal(b1-4)GlcNAc(b1-2)Man(a1-3)]Man(b1-4)GlcNAc(b1-4)GlcNAc
In short: as §1

[26] = molecular target: Neu5Ac(a2-3)Gal(b1-4)GlcNAc(b1-2)[Neu5Ac(a2-3)Gal(b1-4)GlcNAc(b1-6)]Man(a1-6)[Neu5Ac(a2-3)Gal(b1-4)GlcNAc(b1-2)Man(a1-3)][GlcNAc(b1-4)]Man(b1-4)GlcNAc(b1-4)GlcNAc
In short: as §1

[27] = molecular target: Neu5Ac(a2-3)Gal(b1-4)GlcNAc(b1-3)Gal
In short: as §1

[28] = molecular target: Neu5Ac(a2-3)Gal(b1-4)GlcNAc(b1-3)Gal(b1-3)GlcNAc
In short: as §1

[29] = molecular target: Neu5Ac(a2-3)Gal(b1-4)GlcNAc(b1-3)Gal(b1-4)GlcNAc
In short: as §1

[30] = molecular target: Neu5Ac(a2-3)Gal(b1-4)GlcNAc(b1-3)Gal(b1-4)GlcNAc(b1-2)Man(a1-3)[Neu5Ac(a2-3)Gal(b1-4)GlcNAc(b1-3)Gal(b1-4)GlcNAc(b1-2)Man(a1-6)]Man(b1-4)GlcNAc(b1-4)GlcNAc
In short: as §1

[31] = molecular target: Neu5Ac(a2-3)Gal(b1-4)GlcNAc(b1-3)Gal(b1-4)GlcNAc(b1-3)Gal(b1-4)GlcNAc
In short: as §1

[32] = molecular target: Neu5Ac(a2-3)Gal(b1-4)GlcNAc(b1-3)Gal(b1-4)GlcNAc(b1-3)Gal(b1-4)GlcNAc(b1-2)Man(a1-3)[Neu5Ac(a2-3)Gal(b1-4)GlcNAc(b1-3)Gal(b1-4)GlcNAc(b1-3)Gal(b1-4)GlcNAc(b1-2)Man(a1-6)]GalNAc
In short: as §1

[33] = molecular target: Neu5Ac(a2-3)Gal(b1-4)GlcNAc(b1-3)Gal(b1-4)GlcNAc(b1-3)GalNAc
In short: as §1

[34] = molecular target: Neu5Ac(a2-3)Gal(b1-4)GlcNAc(b1-3)Gal(b1-4)GlcNAc(b1-3)[Neu5Ac(a2-3)Gal(b1-4)GlcNAc(b1-3)Gal(b1-4)GlcNAc(b1-6)]GalNAc
In short: as §1

[35] = molecular target: Neu5Ac(a2-3)Gal(b1-4)GlcNAc(b1-3)Gal(b1-4)GlcNAc(b1-6)[Gal(b1-3)]GalNAc
In short: as §1

[36] = molecular target: Neu5Ac(a2-3)Gal(b1-4)GlcNAc(b1-3)Gal(b1-4)[Fuc(a1-3)]GlcNAc
In short: as §1

[37] = molecular target: Neu5Ac(a2-3)Gal(b1-4)GlcNAc(b1-3)GalNAc
In short: as §1

[38] = molecular target: Neu5Ac(a2-3)Gal(b1-4)GlcNAc(b1-3)[Neu5Ac(a2-3)Gal(b1-4)GlcNAc(b1-6)]GalNAc
In short: as §1

B1: PX9937I-bfa-538-26-538 (Bacteroides fragilis) (protein)
chain: DKLDLSPIDYYGSGSYWKTEAQATAYIDGIHKHLRDAAWQHTITFGELRGGRFITGASSDGMGVSNGDIILQNFDETHTGVSKFGDLFGRITNLNLFIARVTDATYLSDEMKNFYLGEVYGLRAFYYFDLYRIYGGVPLRLTADVVEGVIDPNKLYMARSTPKEVMTQIKSDLNKSMEYFGNMNDFDPYKRGKKVYWSKAATECLMGEVYLWTSKVTTGDDVANPADLTIAKTHLESVLNNYNLKMLDDFSQVFNAKNKANDEIIFAIRFLEGEATNSNGTFTYNVGTGSTKNRYQANGEVFGDALDIQNTGNQTYEYNKAVYQNFDDADTRKEATFIASYNKDGKTGELSLYGTHVRKNIGYVNAQGARVYCGDYIFYRLPWVYLTLAEIANMEGDNAAVAKYINLVRKRAYGNAWDETLYAYPETADFTTNELAILHEKDKEFIQEGQRWWDLRRMTLTKGGTPLVFCKEGSLLGDAPILNKSTEAHKLLWPIEKTMLNKDPALEQTPGYK
- glycan array binding signal (z-score) [1]: -0.678
- glycan array binding signal (z-score) [2]: -0.238
- glycan array binding signal (z-score) [3]: -0.393
- glycan array binding signal (z-score) [4]: 0.23
- glycan array binding signal (z-score) [5]: -0.596
- glycan array binding signal (z-score) [6]: 0.537
- glycan array binding signal (z-score) [7]: -0.924
- glycan array binding signal (z-score) [8]: -0.527
- glycan array binding signal (z-score) [9]: -1.07
- glycan array binding signal (z-score) [10]: -1.26
- glycan array binding signal (z-score) [11]: -0.252
- glycan array binding signal (z-score) [12]: 0.112
- glycan array binding signal (z-score) [13]: -1.09
- glycan array binding signal (z-score) [14]: -0.319
- glycan array binding signal (z-score) [15]: -0.114
- glycan array binding signal (z-score) [16]: 0.09
- glycan array binding signal (z-score) [17]: -0.113
- glycan array binding signal (z-score) [18]: 0.241
- glycan array binding signal (z-score) [19]: -0.205
- glycan array binding signal (z-score) [20]: -0.226
- glycan array binding signal (z-score) [21]: -0.552
- glycan array binding signal (z-score) [22]: -1.6
- glycan array binding signal (z-score) [23]: -0.426
- glycan array binding signal (z-score) [24]: 0.172
- glycan array binding signal (z-score) [25]: -0.053
- glycan array binding signal (z-score) [26]: -0.956
- glycan array binding signal (z-score) [27]: -0.697
- glycan array binding signal (z-score) [28]: -0.856
- glycan array binding signal (z-score) [29]: -0.304
- glycan array binding signal (z-score) [30]: -0.246
- glycan array binding signal (z-score) [31]: 1.3
- glycan array binding signal (z-score) [32]: 1.29
- glycan array binding signal (z-score) [33]: 0.409
- glycan array binding signal (z-score) [34]: -0.013
- glycan array binding signal (z-score) [35]: -0.608
- glycan array binding signal (z-score) [36]: -0.193
- glycan array binding signal (z-score) [37]: -0.275
- glycan array binding signal (z-score) [38]: -1.13
